We go through one substance from patent US20120264685A1 (priority 2009, published 2012).

The nature of the data set: general procedure: Fmoc solid-phase peptide synthesis; Fmoc-PAL-PEG-PS; DIPCDI/HOBt or DIPCDI/HOAt; HBTU, PyBOP or TBTU for difficult couplings; TBTU/DI. The following applies: whole synthesis.
Setting [1] is: analytical RP-HPLC, Shimadzu LC-10AD, Luna 5u C18, PDA detector at 220 nm.

“VH-Aib-QGTFT-(αMe-Ser)-D-(αMe-Bip(OMe))-(αMe-APPA)”: the crude yield came out at 55% and the isolated yield is 49%. Besides, under setting [1], the “crude HPLC purity” value was found to be 60% and the “final HPLC purity” value came out at 96%.
